Measurements from the supplement of paper PMC7024190.
Structures can show the parent of a compound that is named as a salt. This is one part of the list. Single values are uncertain here, since repeats match poorly.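 A first-round screen of about ten thousand compounds sought those raising reporter output, using human embryonic kidney cells briefly transfected with a plasmid carrying a Renilla luciferase gene driven by the HSV-TK promoter.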

System: HEK 293FT
Assay: log relative Renilla luciferase luminescence (reporter expression vs reference, reference not stated) (log (base not stated)); higher = higher recombinant reporter expression
Details: 10 µM; time after transfection 48 h

Question: Which log does the source give for Nc1nccc(-c2ccc3noc(-c4ccc(Cl)cc4)c3c2)n1 [PIM 1 Inhibitor 2] here?
Answer: The log was 0.0106.

Question: Which log does the source give for CC(=O)OCCNC(=O)c1cccnc1 [N-[2-(Acetoxy)ethyl]-3-pyridinecarboxamide] here?
Answer: Its log is 0.0158.

Question: NC(=O)c1ccc2[nH]ccc2c1 was tested. Which log did it give?
Answer: The log was 0.0606.

Question: With Cn1cnnc1Sc1c([N+](=O)[O-])ncn1C as the compound, how does the log read?
Answer: Its log is -0.024.

Question: For O=C(O)Cn1c(C(=O)Nc2nc(-c3ccccc3Cl)cs2)cc2ccccc21, which log is on record?
Answer: The log was 0.0477.

Question: With O=C(O)c1ccc(-c2ccc3cc(O)c(C45CC6CC(CC(C6)C4)C5)cc3c2)cc1 as the compound, how does the log read?
Answer: Its log is -0.256.

Question: With CCCn1c(=O)c(C)cn2nc(N)nc12 as the compound, how does the log read?
Answer: Its log is 0.0933.

Question: How did the log turn out when Cc1ccc(/C(=C\CN2CCCC2)c2ccccn2)cc1 [trans-Triprolidine hydrochloride] was run?
Answer: The log was 0.00954.

Question: With COC(=O)C1=C(C)NC(C)=C(C(=O)OC)C1c1ccccc1[N+](=O)[O-] [Nifedipine] as the compound, how does the log read?
Answer: Its log is -0.0863.

Question: With CN(C)CCC1(c2ccc(Cl)cc2)Cc2ccccc2C(=O)O1 (racemic) [(±)-AC 7954 hydrochloride] as the compound, how does the log read?
Answer: Its log is -0.00193.

Question: How did the log turn out when CCCN(C/C=C/I)C1CCc2cccc(O)c2C1 (stereo not drawn) [8-Hydroxy-PIPAT oxalate] was run?
Answer: The log was -0.0548.

Question: For FC(F)(F)c1cc(COC2CCCNC2c2ccccc2)cc(C(F)(F)F)c1 [L-733,060 hydrochloride], which log is on record?
Answer: Its log is 0.035.

Question: How did the log turn out when CC(=N)NCc1cccc(CN)c1 [1400W dihydrochloride] was run?
Answer: The log was 0.0534.

Question: CN1CCN(CCc2ccc(Cl)c(Cl)c2)CC1 [BD 1063 dihydrochloride] was tested. Which log did it give?
Answer: Its log is -0.0929.

Question: How did the log turn out when Cc1noc(NS(=O)(=O)c2cccc3c(N(C)C)cccc23)c1C was run?
Answer: The log was 0.0598.

Question: Oc1ccc(-c2c(-c3ccccc3)nn3c(C(F)(F)F)cc(C(F)(F)F)nc23)cc1 was tested. Which log did it give?
Answer: Its log is -0.0566.

Question: For CC1=C(C(=O)OCCN(Cc2ccccc2)c2ccccc2)C(c2cccc([N+](=O)[O-])c2)C(P2(=O)OCC(C)(C)CO2)=C(C)N1 (stereo not drawn) [Efonidipine hydrochloride monoethanolate], which log is on record?
Answer: Its log is -0.079.

Question: N=C(N)c1ccc(N2CCN(C3CCN(CC(=O)O)CC3)CC2)cc1 was tested. Which log did it give?
Answer: Its log is -0.132.

Question: How did the log turn out when O=C(c1ccc(F)cc1)C1CCN(CCCCc2ccccc2)CC1 [4-(4-Fluorobenzoyl)-1-(4-phenylbutyl)-piperidine oxalate] was run?
Answer: The log was -0.0142.

Question: How did the log turn out when COc1ccccc1N1CCN(CC(O)COc2cccc3ccccc23)CC1 (stereo not drawn) [Naftopidil hydrochloride] was run?
Answer: Its log is -0.00977.

Question: With CCCCCCCCCCCCCCCCn1cc[n+](Cc2ccccc2)c1C as the compound, how does the log read?
Answer: The log was -0.963.

Question: With O=C(O)c1cc(=O)c2c(Cl)cc(Cl)cc2[nH]1 [5,7-Dichlorokynurenic acid] as the compound, how does the log read?
Answer: The log was -0.012.

Question: O=C(NCCNCC(O)COc1ccc(O)cc1)N1CCOCC1 (stereo not drawn) [Xamoterol hemifumarate] was tested. Which log did it give?
Answer: The log was 0.026.

Question: For CC(C)C[C@H](NC(=O)[C@@H](O)[C@H](N)Cc1ccccc1)C(=O)O [Bestatin], which log is on record?
Answer: The log was 0.117.

Question: With N[C@H](C(=O)O)[C@H](OCc1ccccc1)C(=O)O (racemic) as the compound, how does the log read?
Answer: Its log is 0.143.

Question: With CC#CCOC(=O)c1c(C)nc2sc3c(c2c1N)CCC(O)C3 (stereo not drawn) as the compound, how does the log read?
Answer: Its log is -0.000277.

Question: Which log does the source give for Oc1cc2c(c(Cl)c1O)CCNCC2c1ccccc1 (stereo not drawn) here?
Answer: Its log is 0.0583.

Question: How did the log turn out when CCCCCCCCCCCCCCCC(=O)C(F)(F)F was run?
Answer: The log was -0.051.
